The other results are listed elsewhere or left out.
Experiments:
Assay in all cases: glycan array binding signal (z-score within array); higher = stronger binding
Conditions in all cases: glycan notation: IUPAC condensed, linker removed
[1] = target: Neu5Ac(a2-6)Gal(b1-4)GlcNAc(b1-3)Gal(b1-4)GlcNAc(b1-3)GalNAc
Procedure, shortened: (§1)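 From the Consortium for Functional Glycomics database, 3228 arrays were curated, keeping only those whose protein sequence was available. Binding is given as a within-array Z-score averaged across arrays sharing a protein sequence and across linkers. Negative Z-scores can be read as non-binding.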

[2] = target: Neu5Ac(a2-6)Gal(b1-4)GlcNAc(b1-3)Gal(b1-4)GlcNAc(b1-3)[Neu5Ac(a2-6)Gal(b1-4)GlcNAc(b1-3)Gal(b1-4)GlcNAc(b1-6)]GalNAc
Procedure, shortened: as §1

[3] = target: Neu5Ac(a2-6)Gal(b1-4)GlcNAc(b1-3)Gal(b1-4)GlcNAc(b1-6)[Gal(b1-3)]GalNAc
Procedure, shortened: as §1

[4] = target: Neu5Ac(a2-6)Gal(b1-4)GlcNAc(b1-3)Gal(b1-4)[Fuc(a1-3)]GlcNAc(b1-3)Gal(b1-4)[Fuc(a1-3)]GlcNAc
Procedure, shortened: as §1

[5] = target: Neu5Ac(a2-6)Gal(b1-4)GlcNAc(b1-3)GalNAc
Procedure, shortened: as §1

[6] = target: Neu5Ac(a2-6)Gal(b1-4)GlcNAc(b1-3)[Neu5Ac(a2-6)Gal(b1-4)GlcNAc(b1-6)]GalNAc
Procedure, shortened: as §1

[7] = target: Neu5Ac(a2-6)Gal(b1-4)GlcNAc(b1-6)GalNAc
Procedure, shortened: as §1

[8] = target: Neu5Ac(a2-6)Gal(b1-4)GlcNAc(b1-6)[Gal(b1-3)GlcNAc(b1-3)]Gal(b1-4)Glc
Procedure, shortened: as §1

[9] = target: Neu5Ac(a2-6)Gal(b1-4)GlcNAc(b1-6)[Gal(b1-3)]GalNAc
Procedure, shortened: as §1

[10] = target: Neu5Ac(a2-6)Gal(b1-4)GlcNAc6S
Procedure, shortened: as §1

Neu5Ac(a2-6)GalNAc = target: Neu5Ac(a2-6)GalNAc
Procedure, shortened: as §1

[11] = target: Neu5Ac(a2-6)GalNAc(b1-4)GlcNAc
Procedure, shortened: as §1

[12] = target: Neu5Ac(a2-6)GalNAc(b1-4)GlcNAc6S
Procedure, shortened: as §1

[13] = target: Neu5Ac(a2-6)GlcNAc(b1-4)GlcNAc
Procedure, shortened: as §1

[14] = target: Neu5Ac(a2-6)GlcNAc(b1-4)GlcNAc(b1-4)GlcNAc
Procedure, shortened: as §1

Neu5Ac(a2-8)Neu5Ac = target: Neu5Ac(a2-8)Neu5Ac
Procedure, shortened: as §1

[15] = target: Neu5Ac(a2-8)Neu5Ac(a2-3)Gal(b1-3)GalNAc(b1-4)[Neu5Ac(a2-3)]Gal(b1-4)Glc
Procedure, shortened: as §1

[16] = target: Neu5Ac(a2-8)Neu5Ac(a2-3)Gal(b1-3)GalNAc(b1-4)[Neu5Ac(a2-8)Neu5Ac(a2-3)]Gal(b1-4)Glc
Procedure, shortened: as §1

[17] = target: Neu5Ac(a2-8)Neu5Ac(a2-3)Gal(b1-4)Glc
Procedure, shortened: as §1

[18] = target: Neu5Ac(a2-8)Neu5Ac(a2-3)Gal(b1-4)GlcNAc
Procedure, shortened: as §1

[19] = target: Neu5Ac(a2-8)Neu5Ac(a2-3)[Gal(b1-3)GalNAc(b1-4)]Gal(b1-4)Glc
Procedure, shortened: as §1

[20] = target: Neu5Ac(a2-8)Neu5Ac(a2-3)[GalNAc(b1-4)]Gal(b1-4)Glc
Procedure, shortened: as §1

[21] = target: Neu5Ac(a2-8)Neu5Ac(a2-8)Neu5Ac
Procedure, shortened: as §1

[22] = target: Neu5Ac(a2-8)Neu5Ac(a2-8)Neu5Ac(a2-3)Gal(b1-4)Glc
Procedure, shortened: as §1

[23] = target: Neu5Ac(a2-8)Neu5Ac(a2-8)Neu5Ac(a2-3)[Gal(b1-3)GalNAc(b1-4)]Gal(b1-4)Glc
Procedure, shortened: as §1

[24] = target: Neu5Ac(a2-8)Neu5Ac(a2-8)Neu5Ac(a2-3)[GalNAc(b1-4)]Gal(b1-4)Glc
Procedure, shortened: as §1

[25] = target: Neu5Ac(a2-8)Neu5Ac(a2-8)Neu5Ac(a2-8)Neu5Ac(a2-3)[GalNAc(b1-4)]Gal(b1-4)Glc
Procedure, shortened: as §1

[26] = target: Neu5Ac(a2-8)Neu5Gc(a2-3)Gal(b1-4)GlcNAc
Procedure, shortened: as §1

[27] = target: Neu5Ac(b2-6)Gal(b1-4)GlcNAc
Procedure, shortened: as §1

Neu5Ac(b2-6)GalNAc = target: Neu5Ac(b2-6)GalNAc
Procedure, shortened: as §1

[28] = target: Neu5Ac9Ac(a2-3)Gal(b1-3)GlcNAc
Procedure, shortened: as §1

[29] = target: Neu5Ac9Ac(a2-3)Gal(b1-4)GlcNAc
Procedure, shortened: as §1

[30] = target: Neu5Ac9Ac(a2-6)Gal(b1-4)GlcNAc
Procedure, shortened: as §1

[31] = target: Neu5Gc(a2-3)Gal(b1-3)GlcNAc
Procedure, shortened: as §1

[32] = target: Neu5Gc(a2-3)Gal(b1-3)[Fuc(a1-4)]GlcNAc
Procedure, shortened: as §1

Neu5Gc(a2-3)Gal(b1-4)Glc = target: Neu5Gc(a2-3)Gal(b1-4)Glc
Procedure, shortened: as §1

[33] = target: Neu5Gc(a2-3)Gal(b1-4)GlcNAc
Procedure, shortened: as §1

[34] = target: Neu5Gc(a2-3)Gal(b1-4)GlcNAc(b1-3)Gal(b1-4)GlcNAc(b1-2)Man(a1-3)[Neu5Gc(a2-3)Gal(b1-4)GlcNAc(b1-3)Gal(b1-4)GlcNAc(b1-2)Man(a1-6)]Man(b1-4)GlcNAc(b1-4)GlcNAc
Procedure, shortened: as §1

[35] = target: Neu5Gc(a2-3)Gal(b1-4)[Fuc(a1-3)]GlcNAc
Procedure, shortened: as §1

[36] = target: Neu5Gc(a2-6)Gal(b1-4)GlcNAc
Procedure, shortened: as §1

Neu5Gc(a2-6)GalNAc = target: Neu5Gc(a2-6)GalNAc
Procedure, shortened: as §1

[37] = target: Neu5Gc(a2-8)Neu5Ac(a2-3)Gal(b1-4)GlcNAc
Procedure, shortened: as §1

[38] = target: Neu5Gc(a2-8)Neu5Gc(a2-3)Gal(b1-4)GlcNAc
Procedure, shortened: as §1

[39] = target: Neu5Gc(a2-8)Neu5Gc(a2-3)Gal(b1-4)GlcNAc(b1-3)Gal(b1-4)GlcNAc
Procedure, shortened: as §1

[40] = target: Neu5Gc(a2-8)Neu5Gc(a2-6)Gal(b1-4)GlcNAc
Procedure, shortened: as §1

[41] = target: Neu5Gc(b2-6)Gal(b1-4)GlcNAc
Procedure, shortened: as §1

B1: GroEL (Clostridium difficile), Q18CT5 (protein)
chain: MAKEIKFSEETRRALEAGVNKLADTVKVTLGPKGRNVILDKKFGSPLITNDGVTIAKEIELEDRFENMGAQLVKEVATKTNDVAGDGTTTATVLAQAIIREGLKNVTAGANPILLRKGIQKAVTVAVEELKNQSRIVETQEAISQVASISAGDEEVGKLIAEAMEIVGKDGVITVEESQTMNTELDAVEGMQFDRGFVSAYMVTDVDKMEAVLNDPYILITDKKISNIQELLPVLEQIVQQGKKLLIIAEDVEGEALSTLVVNKLRGTFDVVAVKAPGFGDRRKEMLQDIAILTGAQVISEELGYDLKEADLSMLGRASSVKVTKESTTIVDGSGDKKAIEDRVTQIKHQVEQTTSDFDREKLMERLAKLAGGVAVVKVGAATEVELKERKLRIEDALNATRAAVEEGIVAGGGTAFVSVIPAIGTLIESLEGEVKLGAQIVKKALEEPLRQIAINAGLEGAVIVQNVVNSEAETGFDALNEKYVNMIEAGIVDPTKVSRSALQNAASIASTFLTTEAAVADLPEKEDAGMPGMGGGMPGMM
With B1 the “glycan array binding signal (z-score)” value [1] was -0.993, the “glycan array binding signal (z-score)” value [2] was 0.588 and the “glycan array binding signal (z-score)” value [3] was -0.565. The “glycan array binding signal (z-score)” value [4] was -0.305, the “glycan array binding signal (z-score)” value [5] was -0.444 and the “glycan array binding signal (z-score)” value [6] was -1.37. The “glycan array binding signal (z-score)” value [7] was -0.56, the “glycan array binding signal (z-score)” value [8] was -1.58 and the “glycan array binding signal (z-score)” value [9] was -0.766. For the same binder, the “glycan array binding signal (z-score)” value [10] was -0.2, the “glycan array binding signal (z-score)” value (Neu5Ac(a2-6)GalNAc) was -0.935 and the “glycan array binding signal (z-score)” value [11] was 1.25. For the same binder, the “glycan array binding signal (z-score)” value [12] was 1.08, the “glycan array binding signal (z-score)” value [13] was -0.857 and the “glycan array binding signal (z-score)” value [14] was -0.077. For the same binder, the “glycan array binding signal (z-score)” value (Neu5Ac(a2-8)Neu5Ac) was -0.528, the “glycan array binding signal (z-score)” value [15] was 0.329 and the “glycan array binding signal (z-score)” value [16] was -0.904. For the same binder, the “glycan array binding signal (z-score)” value [17] was -0.387, the “glycan array binding signal (z-score)” value [18] was 0.562 and the “glycan array binding signal (z-score)” value [19] was 0.103. The “glycan array binding signal (z-score)” value [20] was -0.079, the “glycan array binding signal (z-score)” value [21] was 0.028 and the “glycan array binding signal (z-score)” value [22] was 1.2. For the same binder, the “glycan array binding signal (z-score)” value [23] was -0.437, the “glycan array binding signal (z-score)” value [24] was -0.254 and the “glycan array binding signal (z-score)” value [25] was 1.71. The “glycan array binding signal (z-score)” value [26] was -1.21, the “glycan array binding signal (z-score)” value [27] was 0.421 and the “glycan array binding signal (z-score)” value (Neu5Ac(b2-6)GalNAc) was -0.894. The “glycan array binding signal (z-score)” value [28] was -0.753, the “glycan array binding signal (z-score)” value [29] was -1.33 and the “glycan array binding signal (z-score)” value [30] was -0.449. For the same binder, the “glycan array binding signal (z-score)” value [31] was -0.004, the “glycan array binding signal (z-score)” value [32] was 0.412 and the “glycan array binding signal (z-score)” value (Neu5Gc(a2-3)Gal(b1-4)Glc) was 2.02. The “glycan array binding signal (z-score)” value [33] was -0.652, the “glycan array binding signal (z-score)” value [34] was 0.016 and the “glycan array binding signal (z-score)” value [35] was -0.437. For the same binder, the “glycan array binding signal (z-score)” value [36] was 1.41, the “glycan array binding signal (z-score)” value (Neu5Gc(a2-6)GalNAc) was -0.254 and the “glycan array binding signal (z-score)” value [37] was -0.545. The “glycan array binding signal (z-score)” value [38] was -0.482, the “glycan array binding signal (z-score)” value [39] was 0.165 and the “glycan array binding signal (z-score)” value [40] was -0.471. For the same binder, the “glycan array binding signal (z-score)” value [41] was 0.305.

Source: the supplement of paper PMC8728848
